PubChem BioAssay AID1259254 | NCATS | 2017

Aim: 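Gene knock-downs that lead to re-replication, shown by excess G2 DNA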 (primary screen)
Cell system: human HCT116 colorectal cancer cells
Reagent: single siRNA against human genes
Timing: 3 days
Detection: 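Nuclei stained with Hoechst and imaged; cell-cycle phase assigned by DNA content; G2 share scaled per plate, non-targeting siRNA 0%, GMNN siRNA 100%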
Scale: G2 robust z-score and G2 cells, % of GMNN control: higher = more G2 cells, more excess DNA replication
Active means: 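An siRNA counts as active if its G2 robust z-score lies at least 5 MADs above the screen median; here such calls match roughly 38% of GMNN control or more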
Here is a random part of about 59,000 reagents tested. Of all reagents, about 1,550 (2.6%) got an active call. 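G2 share is only a proxy for re-replication; each gene was hit by three separate siRNAs, and active genes were retested.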 The numbers tell different reagents against one gene apart. Not all columns of the deposit are shown. Reagent sequences are not shown. The record does not give: the amount of reagent.

| gene | siRNA no. | G2 robust z-score | G2 cells, % of GMNN control | outcome |
| --- | --- | --- | --- | --- |
| TTF2 | 1 | -0.174 | 1.74 | inactive |
| TTF2 | 2 | -1.15 | -5.15 | inactive |
| TTF2 | 3 | 6.14 | 46.2 | active |
| PKIA | 1 | -0.65 | -1.61 | inactive |
| PKIA | 2 | -0.854 | -3.04 | inactive |
| PKIA | 3 | 0.104 | 3.7 | inactive |
| MAPKAP1 | 1 | 3.41 | 26.9 | inactive |
| MAPKAP1 | 2 | 1.03 | 10.2 | inactive |
| MAPKAP1 | 3 | -0.0554 | 2.58 | inactive |
| TAS2R20 | 1 | -0.116 | 2.15 | inactive |
| TAS2R20 | 2 | -0.628 | -1.45 | inactive |
| TAS2R20 | 3 | 0.924 | 9.47 | inactive |
| CCDC63 | 1 | 3.12 | 24.9 | inactive |
| CCDC63 | 2 | -0.769 | -2.44 | inactive |
| CCDC63 | 3 | -0.175 | 1.73 | inactive |
| GNAO1 | 1 | -0.153 | 1.89 | inactive |
| GNAO1 | 2 | -1.44 | -7.17 | inactive |
| GNAO1 | 3 | -0.46 | -0.266 | inactive |
| POLR2F | 1 | 2.23 | 18.6 | inactive |
| POLR2F | 2 | 0.611 | 7.26 | inactive |
| POLR2F | 3 | 2.98 | 23.9 | inactive |
| THBS3 | 1 | -0.338 | 0.587 | inactive |
| THBS3 | 2 | 0.582 | 7.06 | inactive |
| THBS3 | 3 | 0.308 | 5.13 | inactive |
| POLR1A | 1 | 2.91 | 23.4 | inactive |
| POLR1A | 2 | 2.52 | 20.7 | inactive |
| POLR1A | 3 | -0.529 | -0.757 | inactive |
| OPN5 | 1 | 1.38 | 12.7 | inactive |
| OPN5 | 2 | -0.0624 | 2.53 | inactive |
| OPN5 | 3 | 0.711 | 7.97 | inactive |
| MAP3K14 | 1 | -0.0307 | 2.75 | inactive |
| MAP3K14 | 2 | 1.3 | 12.1 | inactive |
| MAP3K14 | 3 | -0.0941 | 2.31 | inactive |
| TMEM69 | 1 | -0.652 | -1.62 | inactive |
| TMEM69 | 2 | 1.89 | 16.3 | inactive |
| TMEM69 | 3 | 0.906 | 9.34 | inactive |
| SPATA4 | 1 | 3.13 | 25 | inactive |
| SPATA4 | 2 | 4 | 31.1 | inactive |
| SPATA4 | 3 | -0.341 | 0.568 | inactive |
| EMC3 | 1 | 5.7 | 43.1 | active |
| EMC3 | 2 | -0.16 | 1.84 | inactive |
| EMC3 | 3 | 0.0196 | 3.11 | inactive |
| TMEM267 | 1 | 0.347 | 5.41 | inactive |
| TMEM267 | 2 | -0.58 | -1.11 | inactive |
| TMEM267 | 3 | -0.779 | -2.52 | inactive |
| SULT1A4 | 1 | 0.489 | 6.41 | inactive |
| SULT1A4 | 2 | -0.0996 | 2.27 | inactive |
| SULT1A4 | 3 | 1.11 | 10.8 | inactive |
| ZNF684 | 1 | 0.0651 | 3.43 | inactive |
| ZNF684 | 2 | 2.22 | 18.6 | inactive |
| ZNF684 | 3 | 0.0507 | 3.32 | inactive |
| MCCC2 | 1 | -0.014 | 2.87 | inactive |
| MCCC2 | 2 | -0.473 | -0.362 | inactive |
| MCCC2 | 3 | -0.914 | -3.46 | inactive |
| GYG1 | 1 | -0.655 | -1.64 | inactive |
| GYG1 | 2 | 0.763 | 8.34 | inactive |
| GYG1 | 3 | -0.949 | -3.71 | inactive |
| ABCA16P | 1 | 2.23 | 18.7 | inactive |
| ABCA16P | 2 | -0.373 | 0.341 | inactive |
| ABCA16P | 3 | 1.47 | 13.3 | inactive |
| INPP4B | 1 | 1.16 | 11.1 | inactive |
| INPP4B | 2 | 1.22 | 11.6 | inactive |
| INPP4B | 3 | 0.0451 | 3.28 | inactive |
| OR4N4 | 1 | 0.116 | 3.79 | inactive |
| OR4N4 | 2 | 1.69 | 14.9 | inactive |
| OR4N4 | 3 | 0.976 | 9.84 | inactive |
| OR8G2P | 1 | -0.337 | 0.593 | inactive |
| OR8G2P | 2 | -1.08 | -4.6 | inactive |
| OR8G2P | 3 | -0.801 | -2.67 | inactive |
| ZNF586 | 1 | -0.291 | 0.922 | inactive |
| ZNF586 | 2 | -1.14 | -5.05 | inactive |
| ZNF586 | 3 | -0.34 | 0.577 | inactive |
| TMEM114 | 1 | -0.0466 | 2.64 | inactive |
| TMEM114 | 2 | 0.271 | 4.88 | inactive |
| TMEM114 | 3 | 3.43 | 27.1 | inactive |
| MPL | 1 | 1.74 | 15.2 | inactive |
| MPL | 2 | 0.89 | 9.23 | inactive |
| MPL | 3 | -0.127 | 2.07 | inactive |
| PGF | 1 | -0.326 | 0.671 | inactive |
| PGF | 2 | -0.812 | -2.75 | inactive |
| PGF | 3 | 1.45 | 13.2 | inactive |
| FENDRR | 1 | 0.382 | 5.65 | inactive |
| FENDRR | 2 | -0.355 | 0.468 | inactive |
| FENDRR | 3 | 0.432 | 6.01 | inactive |
| FENDRR | 4 | 0.67 | 7.68 | inactive |
| FENDRR | 5 | 2.9 | 23.4 | inactive |
| FENDRR | 6 | -0.438 | -0.112 | inactive |
